The results in this text go back to paper PMC5718516.

Sequences of proteins named here, by UniProt entry; tags and fusion partners are left off.
UniProt Q13887: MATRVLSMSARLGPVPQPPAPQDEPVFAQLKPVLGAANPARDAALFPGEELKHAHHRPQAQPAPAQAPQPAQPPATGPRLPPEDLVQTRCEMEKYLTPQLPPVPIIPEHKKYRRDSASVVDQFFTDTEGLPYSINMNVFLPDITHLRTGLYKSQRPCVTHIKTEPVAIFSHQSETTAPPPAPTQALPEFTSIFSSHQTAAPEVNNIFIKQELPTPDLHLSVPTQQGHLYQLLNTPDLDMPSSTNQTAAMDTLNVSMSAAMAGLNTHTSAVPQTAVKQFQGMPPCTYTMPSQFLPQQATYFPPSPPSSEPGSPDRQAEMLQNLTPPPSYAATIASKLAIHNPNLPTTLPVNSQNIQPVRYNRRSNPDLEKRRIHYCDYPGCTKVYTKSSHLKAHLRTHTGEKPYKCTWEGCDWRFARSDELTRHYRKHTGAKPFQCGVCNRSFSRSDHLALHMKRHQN
UniProt P01106: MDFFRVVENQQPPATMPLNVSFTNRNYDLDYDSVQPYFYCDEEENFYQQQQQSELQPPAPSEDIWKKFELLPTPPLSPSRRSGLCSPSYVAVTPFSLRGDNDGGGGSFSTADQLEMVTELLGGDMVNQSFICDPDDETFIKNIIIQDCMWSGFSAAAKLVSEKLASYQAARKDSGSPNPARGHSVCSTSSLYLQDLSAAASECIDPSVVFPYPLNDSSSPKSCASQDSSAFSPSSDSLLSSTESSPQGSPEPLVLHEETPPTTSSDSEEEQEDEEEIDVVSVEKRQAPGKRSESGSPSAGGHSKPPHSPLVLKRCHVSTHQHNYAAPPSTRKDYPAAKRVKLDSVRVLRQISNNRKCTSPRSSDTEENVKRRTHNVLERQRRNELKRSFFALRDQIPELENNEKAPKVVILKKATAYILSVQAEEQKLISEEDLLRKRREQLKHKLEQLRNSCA

This experiment deals with Krüppel-like factor 5 (klf5), HEK293 cells (human (endogenous in HEK293)) (UniProt Q13887). The experiment can be described thus: co-IP; HEK293 cell extracts; immunoprecipitation with antibody to klf5, immunoblot with antibody to c-Myc; cells treated with 20 μM RSV for 12, 24, 48 h, or cultured in high glucose (25 mmol/L) without or with LY294002 (2 h) or RSV (20 μM, 24 h). For orientation: In western blotting, separated proteins are transferred to a membrane and probed.

No constants are given. Whether binding was seen depends on the method and setting. In cells and extracts the contact can be indirect. Some results given as binding are weak or reduced against the parent protein; the word gives no strength.

“c-Myc, HEK293 cells (from UniProt P01106 1-454)”: the binding result is recorded as “binds”.
